The supplement of paper PMC6445147
Single values of this data set are uncertain.

B1: human tRNA-Pro; a variant is named by its letters at N, in order (parent)
chain: GGCTCGTTGGTCTAGNGGTATGATTCTCGCTTAGGGTGCGAGAGGTCCCGGGTTCNNATCCCGGACGAGCCC

Tests used:
[1] = variants of: B1; assay: tRNA Pol-III promoter activity, log2 (circRNA frequency / plasmid DNA frequency) (log2 ratio); higher = stronger promoter activity; conditions: HEK293T; construct: no Pol-II promoter ((-)CMV library)
[2] = variants of: B1; assay: tRNA 3' processing efficiency (processed reads / all reads, maximum-likelihood estimate) (fraction); higher = more efficient 3' processing; conditions: HEK293T; construct: no Pol-II promoter ((-)CMV library)
[3] = variants of: B1; assay: tRNA 5' processing efficiency (processed reads / all reads, maximum-likelihood estimate) (fraction); higher = more efficient 5' processing; conditions: HEK293T; construct: CMV Pol-II promoter ((+)CMV library, decapped)

Row | Variant | tRNA Pol-III promoter activity (log2) [1] | tRNA 3' processing efficiency [2] | tRNA 5' processing efficiency [3]
1 | GGCTCGTTGGTCTCCCGGTATGATTCTCGCTTAGGGTGCGAGAGGTCCCGGGTTCAAATCCCGGACGAGCCC | 3.81 | 0.33 | 
2 | GGCTCGTTGGTCTCGGGGTTTGATTCTCGCTTAGGGTGCGAGAGGTCCCGGGGTCAAATCCCGGACGAGCCC | 4.93 | 0.5 | 
3 | GGCTCGTTGGTCTCGCGGTATGATTCTCGCTTAGGGTGCGAGAGGTCCCGGGTTCAATTCCCGGACGAGCCC | 4.21 | 0.5 | 
4 | GGCTCGTTGGTCTCGCGGTATGATTCTCGCTTAGGGTGCGAGAGGTCCCGGGTTCAAATCCCGGACGAGCCC | 0.652 | 0.22 | 
5 | GGCTCGTTGGTCTCGAGGTATGATTCTCGCTTAGGGTGCGAGAGGTCCCGGGTTCAATTCCCGGACGAGCCC | 2.04 | 0.25 | 0.33
6 | GGCTCGTTGGTCTCGGGGTATGATTCTCGCTTAGGGTGCGAGAGGTCCCGGGTTTAACTCCCGGACGAGCCC | 3.41 | 0.14 | 
7 | GGCTCGTTGGTCTCGTGGTATGATTCTCGCTTAGGGTGCGAGAGGTCCCGGGTTCAAATCCCGGACGAGCCC | 0.535 | 0.15 | 
8 | GGCTCGTTGGTCTCGGGGTCTGATTCTCGCTTAGGGTGCGAGAGGTCCCGGGTTCAAATCCCGGACGAGCCC | 0.187 | 0.25 | 0.03
9 | GGCTCGTTGGTCTCGGGGTTTGATTCTCGCTTAGGGTGCGAGAGGTCCCGGGTTCAAATCCCGGACGAGCCC | 4.06 | 0.29 | 
10 | GGCTCGTTGGTCTCGGGGTGTGATTCTCGCTTAGGGTGCGAGAGGTCCCGGGTTCAAATCCCGGACGAGCCC | 1.28 | 0.36 | 
11 | GGCTCGTTGGTCTAGAGGTATGATTCTCGCTTAGGGTGCGAGAGGTCCCGGGTTCAAATCCCGGACGAGCCC | -0.271 | 0.75 | 0.33
12 | GGCTCGTTGGTCTCGGGGTCTGATTCTCGCTTAGGGTGCGAGAGGTCCCGGGTTCAAGTCCCGGACGAGCCC | 3.94 | 0.43 | 
13 | GGCTCGTTGGTCTCGGGGTATGATTCTCGCTTAGGGTGCGAGAGGTCCCGGGTTCAACACCCGGACGAGCCC | 3.93 | 0.13 | 
14 | GGCTCGTTGGTCTCGGGGTATGATTCTCGCTTAGGGTGCGAGAGGTCCCGGGTTCAACGCCCGGACGAGCCC | 3.28 | 0.57 | 
15 | GGCTCGTTGGTCTAGTGGTATGATTCTCGCTTAGGGTGCGAGAGGTCCCGGGTTCAAATCCCGGACGAGCCC | 0.112 | 0.5 | 0.29
16 | GGCTCGTTGGTCTCGGGGTTTGATTCTCGCTTAGGGTGCGAGAGGTCCCGGGTTCAACCCCCGGACGAGCCC | 4.62 | 0.13 | 
17 | GGCTCGTTGGTCTCGGGGTATGATTCTCGCTTAGGGTGCGAGAGGTCCCGGGTTCAATCCCCGGACGAGCCC | 4.93 | 0.25 | 

Row | Variant | tRNA Pol-III promoter activity (log2) [1] | tRNA 3' processing efficiency [2] | tRNA 5' processing efficiency [3]
18 | GGCTCGTTGGTCTCGGGGTATGATTCTCGCTTAGGGTGCGAGAGGTCCCGGGTTCAAATCCCGGACGAGCCC | 1.75 | 0.31 | 0.21
19 | GGCTCGTTGGTCTCGGGGTTTGATTCTCGCTTAGGGTGCGAGAGGTCCCGGGTTCAAGTCCCGGACGAGCCC | 3.09 | 0.4 | 
20 | GGCTCGTTGGTCTCGGGGTATGATTCTCGCTTAGGGTGCGAGAGGTCCCGGGTTTAAATCCCGGACGAGCCC | 1.47 | 0.62 | 
21 | GGCTCGTTGGTCTCGGGGTATGATTCTCGCTTAGGGTGCGAGAGGTCCCGGGTTGAAATCCCGGACGAGCCC | 0.942 | 0.4 | 0.2
22 | GGCTCGTTGGTCTCGGGGTATGATTCTCGCTTAGGGTGCGAGAGGTCCCGGGTTAAAATCCCGGACGAGCCC | 0.906 | 0.4 | 
23 | GGCTCGTTGGTCTCGTGGTATGATTCTCGCTTAGGGTGCGAGAGGTCCCGGGTTCAATTCCCGGACGAGCCC | 3.25 | 0.2 | 
24 | GGCTCGTTGGTCTCGTGGTATGATTCTCGCTTAGGGTGCGAGAGGTCCCGGGTTCAAGTCCCGGACGAGCCC | 3.07 | 0.67 | 
25 | GGCTCGTTGGTCTCGTGGTTTGATTCTCGCTTAGGGTGCGAGAGGTCCCGGGTTCAAATCCCGGACGAGCCC | 3.36 | 0.5 | 
26 | GGCTCGTTGGTCTCGCGGTATGATTCTCGCTTAGGGTGCGAGAGGTCCCGGGTTTAAATCCCGGACGAGCCC | 2.74 | 0.14 | 
27 | GGCTCGTTGGTCTAGCGGTATGATTCTCGCTTAGGGTGCGAGAGGTCCCGGGTTCAAATCCCGGACGAGCCC | 0.665 | 0.25 | 0.27
28 | GGCTCGTTGGTCTCGGGGTATGATTCTCGCTTAGGGTGCGAGAGGTCCCGGGTTCAATTCCCGGACGAGCCC | 2.22 | 0.25 | 
29 | GGCTCGTTGGTCTCGGGGTATGATTCTCGCTTAGGGTGCGAGAGGTCCCGGGTTCAAGTCCCGGACGAGCCC | 2.05 | 0.59 | 
30 | GGCTCGTTGGTCTCGGGGTATGATTCTCGCTTAGGGTGCGAGAGGTCCCGGGTTCAACTCCCGGACGAGCCC | -0.0332 | 0.38 | 
31 | GGCTCGTTGGTCTCGGGGTTTGATTCTCGCTTAGGGTGCGAGAGGTCCCGGGTTCAAACCCCGGACGAGCCC | 5.52 | 0.36 | 
32 | GGCTCGTTGGTCTCGGGGTTTGATTCTCGCTTAGGGTGCGAGAGGTCCCGGGTTCAAAACCCGGACGAGCCC | 5.03 | 0.5 | 
33 | GGCTCGTTGGTCTCGAGGTATGATTCTCGCTTAGGGTGCGAGAGGTCCCGGGTTCAAATCCCGGACGAGCCC | 0.672 | 0.29 | 
34 | GGCTCGTTGGTCTCCGGGTATGATTCTCGCTTAGGGTGCGAGAGGTCCCGGGTTCAAATCCCGGACGAGCCC | 1.47 | 0.53 | 

Part of the list above, in markdown.

| Row | Variant | tRNA Pol-III promoter activity (log2) [1] | tRNA 3' processing efficiency [2] | tRNA 5' processing efficiency [3] |
| --- | --- | --- | --- | --- |
| 21 | GGCTCGTTGGTCTCGGGGTATGATTCTCGCTTAGGGTGCGAGAGGTCCCGGGTTGAAATCCCGGACGAGCCC | 0.942 | 0.4 | 0.2 |
| 22 | GGCTCGTTGGTCTCGGGGTATGATTCTCGCTTAGGGTGCGAGAGGTCCCGGGTTAAAATCCCGGACGAGCCC | 0.906 | 0.4 |  |
